The assay concerns the target flag-tagged unmodified hnRNP U (WT) (UniProt Q00839). In words: co-IP.

By UniProt entry, the sequences of proteins in these tests, tags left out.
UniProt Q00839: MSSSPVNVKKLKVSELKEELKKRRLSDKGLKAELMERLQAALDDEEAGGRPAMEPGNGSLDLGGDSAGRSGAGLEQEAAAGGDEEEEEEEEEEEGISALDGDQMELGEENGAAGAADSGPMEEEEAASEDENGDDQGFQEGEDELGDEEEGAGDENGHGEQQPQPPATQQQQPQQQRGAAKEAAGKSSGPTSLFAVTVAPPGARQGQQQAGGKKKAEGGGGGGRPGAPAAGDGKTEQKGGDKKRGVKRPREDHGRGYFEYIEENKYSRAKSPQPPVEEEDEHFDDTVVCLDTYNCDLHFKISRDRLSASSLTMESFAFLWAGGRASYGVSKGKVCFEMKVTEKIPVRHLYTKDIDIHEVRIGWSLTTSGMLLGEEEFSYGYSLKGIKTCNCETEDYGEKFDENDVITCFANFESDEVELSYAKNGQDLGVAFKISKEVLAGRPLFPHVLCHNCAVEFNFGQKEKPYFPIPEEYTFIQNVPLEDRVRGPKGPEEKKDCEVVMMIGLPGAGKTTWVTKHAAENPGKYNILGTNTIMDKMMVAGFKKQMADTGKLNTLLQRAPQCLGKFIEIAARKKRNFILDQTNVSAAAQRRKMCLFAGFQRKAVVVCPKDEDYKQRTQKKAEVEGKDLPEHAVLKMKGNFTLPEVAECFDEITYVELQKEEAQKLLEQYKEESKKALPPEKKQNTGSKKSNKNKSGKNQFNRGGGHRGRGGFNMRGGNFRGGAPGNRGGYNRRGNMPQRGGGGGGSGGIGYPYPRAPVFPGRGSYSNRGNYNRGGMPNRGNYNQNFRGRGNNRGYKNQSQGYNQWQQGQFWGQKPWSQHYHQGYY
UniProt O00571: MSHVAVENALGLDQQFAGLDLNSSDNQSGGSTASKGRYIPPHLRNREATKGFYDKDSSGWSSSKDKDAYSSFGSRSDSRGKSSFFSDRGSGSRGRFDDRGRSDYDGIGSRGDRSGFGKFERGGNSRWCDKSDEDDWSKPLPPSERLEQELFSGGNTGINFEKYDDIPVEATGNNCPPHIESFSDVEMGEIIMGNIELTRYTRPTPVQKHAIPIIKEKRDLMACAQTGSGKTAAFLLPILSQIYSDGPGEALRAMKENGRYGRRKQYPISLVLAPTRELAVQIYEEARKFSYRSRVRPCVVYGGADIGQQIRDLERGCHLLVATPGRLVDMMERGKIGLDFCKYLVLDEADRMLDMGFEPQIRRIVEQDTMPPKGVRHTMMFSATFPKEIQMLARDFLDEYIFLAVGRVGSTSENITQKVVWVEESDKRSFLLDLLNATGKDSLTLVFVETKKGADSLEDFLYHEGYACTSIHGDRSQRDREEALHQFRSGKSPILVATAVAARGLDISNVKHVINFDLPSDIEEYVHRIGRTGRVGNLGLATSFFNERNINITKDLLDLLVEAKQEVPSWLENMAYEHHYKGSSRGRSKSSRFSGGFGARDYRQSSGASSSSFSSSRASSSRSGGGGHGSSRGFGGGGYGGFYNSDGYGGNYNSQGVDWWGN

Results are given in words; binding and its absence hold for the method and conditions named. Binding seen in cells or lysates may run through a third protein. Some entries that bind do so weakly or less than the wild type.

Among the data in doi:10.1101/2024.01.29.577192 are binding values, retold here.

Take DDX3X (from UniProt O00571 1-662): the binding entry is “binds”.

B1: GRSF1 (protein, UniProt Q12849 118-480)
chain: SQESKTTYLEDLPPPPEYELAPSKLEEEVDDVFLIRAQGLPWSCTMEDVLNFFSDCRIRNGENGIHFLLNRDGKRRGDALIEMESEQDVQKALEKHRMYMGQRYVEVYEINNEDVDALMKSLQVKSSPVVNDGVVRLRGLPYSCNEKDIVDFFAGLNIVDITFVMDYRGRRKTGEAYVQFEEPEMANQALLKHREEIGNRYIEIFPSRRNEVRTHVGSYKGKKIASFPTAKYITEPEMVFEEHEVNEDIQPMTAFESEKEIELPKEVPEKLPEAADFGTTSSLHFVHMRGLPFQANAQDIINFFAPLKPVRITMEYSSSGKATGEADVHFETHEDAVAAMLKDRSHVHHRYIELFLNSCPKGK
On to B1, for which the binding entry was “no binding”.
